# Measurements published in US8658670B2 (Crestone, Inc., priority 2006, dated 2014).
# Some entries share one result that the patent states for a list of compounds.
# Test system: C. difficile strain ATCC43255
# Assay: Growth of C. difficile in BHI broth culture
# Type: cell-based
# Conditions: 40 h at 35° C., inoculum 10^6 CFU/mL
row,SMILES,concentrations preventing growth of C. difficile in broth
1,Cc1ncsc1CCOc1c(Br)cc(Br)cc1CNCCCNc1cc(=O)c2sccc2[nH]1,≥ 0.25 µg/mL
2,"O=c1cc(NCCCNC2CCOc3c(Br)cc(Br)cc32)[nH]c2ccsc12 (centres unmarked) [5-[3-(6,8-Dibromo-chroman-4-ylamino)-propylamino]-4H-thieno[3,2-b]pyridin-7-one]",≥ 0.25 µg/mL
